Experimental data as given in US6953786B2, “Compositions comprising plant-derived polyphenolic compounds and inhibitors of reactive oxygen species and methods of using thereof” (The Regents of the University of California, priority 2002, dated 2005).
At least one structure is not confirmed: it was looked up by name or label, or the drawing left a doubt.

What was measured:
cytochrome c = assay: Mitochondrial cytochrome c release (Western blot); assay type: cell-based, human; details: Mia PACA-2, 24 hours, 100 μM, no serum
Experimental: In order to determine the effects polyphenolic compounds have on mitochondrial cytochrome c release and apoptosis, the following assay was conducted. BSp73AS cells were cultured for 6 hours and Mia PACA-2 cells were cultured in the absence of serum or growth factors for 24 hours in the absence or presence of 100 μM of each rutin, trans-resveratrol, genistein, or quercetin. Cells were washed twice with ice-cold PBS, pH 7.2 and resuspended in extraction buffer, about 500 μl, comprising 20 mM HEPES-KOH (pH 7.0), 10 mM KCl, 1 mM NaEGTA, 2 mM MgCl2, 1 mM EDTA, 1 mM DTT, 250 mM sucrose, 1 mM PMSF and protease inhibitors cocktail as provided above. The lysate was incubated for 30 minutes on ice and then homogenized using a glass dounce (80 strokes). Nuclei were removed by centrifugation at 1,000 g for 10 minutes at 4° C. […]
In order to determine the role of the cancer cell's PTP in the effects of the polyphenolic compounds on mitochondrial function, caspase-3 activation and apoptosis, we performed the following experiments. […] Cytosolic protein extracts (supernatants) were collected, protein concentrations were determined and the extracts were aliquoted and stored at −80° C. […]

caspase-3 = assay: Caspase-3 (DEVDase) activity, fluorogenic assay with DEVD-AMC; assay type: cell-based, human; details: Mia PACA-2, up to 24 hours, 100 μM, no serum (FIG. 7B)
PARP = PARP proteolysis (Western blot); assay type: cell-based, rat; details: BSp73AS, 6 hours, 100 μM
Experimental: BSp73AS cells were cultured for 6 hours and Mia PACA-2 cells were cultured for 24 hours in the presence or absence of 100 μM of each rutin, quercetin or trans-resveratrol and with or without 50 μM of each […]. The cells were washed twice with PBS and lysed by incubating for 20 minutes at 4° C. in lysis buffer comprising 0.15 M NaCl, 50 mM Tris (pH 7.2), 1% deoxycholic acid (wt/vol), 1% Triton X-100 (wt/vol), 0.1% […] (wt/vol) and 1 mM PMSF, as well as 5 μg/ml each of protease inhibitors, pepstatin, leupeptin, chymostatin, antipain, and aprotinin. Then the cell lysates were centrifuged for 20 minutes at 15,000 g at 4° C. The supernatants were separated by 4-20% SDS-PAGE for 2 hours at 120 V using precast Tris-glycine gels and a Mini-Cell gel apparatus (Novex, San Diego, Calif.). Separated proteins were electrophoretically transferred to a nitrocellulose membrane for 2 hours at 30 V using a Novex Blot Module (Novex, San Diego, Calif.). Nonspecific binding was blocked by 1 hour incubation of nitrocellulose membranes in 5% (wt/vol) nonfat dry milk in Tris-buffered saline (TBS; pH 7.5). […] When processing of a protein was measured, a decrease in unprocessed full-length form was measured concomitantly with the increase in the cleaved, active form. […]

BSp73AS cells = assay: Mitochondrial membrane potential, DiOC6(3) retention; assay type: cell-based, rat; details: 6 hours (FIG. 10A)
Experimental: (§1) In order to determine the effects polyphenolic compounds have on mitochondrial membrane potential, the retention of the dye 3,3′-dihexyloxacarbocyanine (DiOC6(3)) was measured as described by Pastorino J G, et al. (1998) J Biol Chem 273:7770-7775, which is herein incorporated by reference. BSp73AS cells were cultured for 6 hours in the absence (control) or presence of 0, 12, 24, 50, and 100 μM quercetin and trans-resveratrol. The cells were loaded with 1 μM DiOC6(3) during the last 30 minutes of treatment with a polyphenolic compound (or vehicle). The cells were then collected and pelleted by centrifugation. The supernatant was removed and the pellet was washed twice with PBS by alternate centrifugation and resuspension. The pellet was then lysed by addition of 1 ml of H2O and homogenized. The concentration of DiOC6(3) was read on a Perkin-Elmer LS-5 fluorescence spectrometer at 488 nm excitation and 500 nm emission. An aliquot of the cells was used for determining the DiOC6(3) fluorescence that was retained by the cells.

Mia PACA-2 cells = assay: as above; assay type: cell-based, human; details: Mia PACA-2, no serum (FIG. 10B)
Experimental: as §1
Mia PACA-2 cells were cultured for 72 hours in the presence of serum and trans-resveratrol or genistein in the presence or absence of DPI or Tiron. Mitochondrial membrane potential was measured as described above.

C[C@@H]1O[C@@H](OC[C@H]2O[C@@H](Oc3c(-c4ccc(O)c(O)c4)oc4cc(O)cc(O)c4c3=O)[C@H](O)[C@@H](O)[C@@H]2O)[C@H](O)[C@H](O)[C@H]1O [rutin]
not: cytosolic and mitochondrial cytochrome c (cytochrome c) | caspase-3 activation (caspase-3) | PARP cleavage (PARP) | mitochondrial membrane potential (BSp73AS cells) | mitochondrial membrane potential (Mia PACA-2 cells)
